In PMC11904782 one finds binding data, which are given here for one molecule.

By UniProt entry, the sequences of proteins in these tests, tags left out. Where a name states a change or a piece, a line headed by the entry shows the natural chain unless it says otherwise.
UniProt Q8NFD5: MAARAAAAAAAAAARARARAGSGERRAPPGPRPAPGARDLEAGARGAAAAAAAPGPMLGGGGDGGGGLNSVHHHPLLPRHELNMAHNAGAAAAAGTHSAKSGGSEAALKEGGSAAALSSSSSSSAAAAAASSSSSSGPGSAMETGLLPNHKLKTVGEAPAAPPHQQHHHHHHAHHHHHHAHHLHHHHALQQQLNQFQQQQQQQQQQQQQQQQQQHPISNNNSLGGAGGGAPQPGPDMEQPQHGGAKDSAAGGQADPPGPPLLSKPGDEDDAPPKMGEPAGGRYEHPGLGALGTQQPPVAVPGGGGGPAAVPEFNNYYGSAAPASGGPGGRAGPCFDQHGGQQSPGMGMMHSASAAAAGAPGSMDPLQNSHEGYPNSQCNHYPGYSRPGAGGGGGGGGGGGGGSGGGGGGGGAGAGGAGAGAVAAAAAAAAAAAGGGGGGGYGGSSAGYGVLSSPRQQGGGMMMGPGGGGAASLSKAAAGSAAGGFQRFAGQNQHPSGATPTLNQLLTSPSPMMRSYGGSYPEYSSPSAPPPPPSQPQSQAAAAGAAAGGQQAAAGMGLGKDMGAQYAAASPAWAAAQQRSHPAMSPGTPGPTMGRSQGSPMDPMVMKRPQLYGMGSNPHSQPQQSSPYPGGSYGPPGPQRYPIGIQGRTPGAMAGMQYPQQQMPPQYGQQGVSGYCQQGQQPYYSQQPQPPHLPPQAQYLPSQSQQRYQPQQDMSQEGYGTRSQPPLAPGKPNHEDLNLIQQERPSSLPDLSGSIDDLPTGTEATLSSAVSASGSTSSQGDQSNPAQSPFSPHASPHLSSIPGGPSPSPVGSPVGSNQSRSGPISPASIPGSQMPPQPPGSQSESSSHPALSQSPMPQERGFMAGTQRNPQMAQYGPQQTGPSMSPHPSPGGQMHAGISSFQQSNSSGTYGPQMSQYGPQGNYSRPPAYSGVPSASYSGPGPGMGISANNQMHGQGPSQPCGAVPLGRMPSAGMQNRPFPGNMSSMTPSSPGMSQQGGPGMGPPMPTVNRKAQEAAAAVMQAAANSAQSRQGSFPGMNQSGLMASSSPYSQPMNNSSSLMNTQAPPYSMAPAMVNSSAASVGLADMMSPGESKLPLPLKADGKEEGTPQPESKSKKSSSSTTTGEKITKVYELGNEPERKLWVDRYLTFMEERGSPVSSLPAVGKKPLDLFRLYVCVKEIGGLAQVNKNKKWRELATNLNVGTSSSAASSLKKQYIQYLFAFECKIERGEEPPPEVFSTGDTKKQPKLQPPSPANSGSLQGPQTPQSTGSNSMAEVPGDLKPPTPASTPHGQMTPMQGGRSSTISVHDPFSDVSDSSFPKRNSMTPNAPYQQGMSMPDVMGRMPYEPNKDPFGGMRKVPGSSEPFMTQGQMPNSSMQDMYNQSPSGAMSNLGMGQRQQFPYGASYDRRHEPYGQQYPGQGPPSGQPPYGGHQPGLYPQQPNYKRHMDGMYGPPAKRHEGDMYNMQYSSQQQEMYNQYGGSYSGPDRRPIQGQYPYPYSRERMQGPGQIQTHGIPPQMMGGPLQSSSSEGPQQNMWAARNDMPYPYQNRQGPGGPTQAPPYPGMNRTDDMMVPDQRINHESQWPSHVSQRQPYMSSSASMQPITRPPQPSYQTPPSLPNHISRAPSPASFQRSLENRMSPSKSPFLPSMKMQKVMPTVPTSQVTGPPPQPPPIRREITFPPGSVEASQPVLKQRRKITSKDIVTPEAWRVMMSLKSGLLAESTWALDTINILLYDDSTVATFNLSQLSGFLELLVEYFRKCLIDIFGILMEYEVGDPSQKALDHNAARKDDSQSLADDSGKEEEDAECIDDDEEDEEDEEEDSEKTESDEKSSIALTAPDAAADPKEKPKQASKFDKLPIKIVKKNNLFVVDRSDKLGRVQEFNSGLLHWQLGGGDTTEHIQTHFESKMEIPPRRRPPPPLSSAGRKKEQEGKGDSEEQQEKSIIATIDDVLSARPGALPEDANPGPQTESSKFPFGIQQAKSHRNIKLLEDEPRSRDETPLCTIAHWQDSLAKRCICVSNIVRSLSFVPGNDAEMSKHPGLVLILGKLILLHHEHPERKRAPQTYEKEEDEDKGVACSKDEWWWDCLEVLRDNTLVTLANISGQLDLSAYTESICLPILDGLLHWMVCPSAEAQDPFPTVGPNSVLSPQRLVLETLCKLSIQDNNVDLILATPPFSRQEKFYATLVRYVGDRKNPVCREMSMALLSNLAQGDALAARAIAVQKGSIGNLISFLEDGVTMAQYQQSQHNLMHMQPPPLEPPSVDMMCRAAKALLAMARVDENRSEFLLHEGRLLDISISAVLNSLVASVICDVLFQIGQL

Results are given in words; binding and its absence hold for the method and conditions named. In cells and extracts the contact can be indirect. Binding can be weak; no strength is given.

This assay addresses GST–ARID1B–ARM: ARM domain of ARID1B (aa 1861–2236) (UniProt Q8NFD5). Put plainly: pull-down; GST–ARID1A mutants or GST–ARID1B–ARM on Glutathione Sepharose beads incubated with HEK293 (methods: 293T) nuclear extract for 4 h at 4°C with RNase A and DNase I; bound proteins by immunoblot; only the target purified. (In western blotting, separated proteins are transferred to a membrane and probed.)

B1: DNA polymerase λ (POLL) (protein, UniProt Q9UGP5 1-575)
chain: MDPRGILKAFPKRQKIHADASSKVLAKIPRREEGEEAEEWLSSLRAHVVRTGIGRARAELFEKQIVQHGGQLCPAQGPGVTHIVVDEGMDYERALRLLRLPQLPPGAQLVKSAWLSLCLQERRLVDVAGFSIFIPSRYLDHPQPSKAEQDASIPPGTHEALLQTALSPPPPPTRPVSPPQKAKEAPNTQAQPISDDEASDGEETQVSAADLEALISGHYPTSLEGDCEPSPAPAVLDKWVCAQPSSQKATNHNLHITEKLEVLAKAYSVQGDKWRALGYAKAINALKSFHKPVTSYQEACSIPGIGKRMAEKIIEILESGHLRKLDHISESVPVLELFSNIWGAGTKTAQMWYQQGFRSLEDIRSQASLTTQQAIGLKHYSDFLERMPREEATEIEQTVQKAAQAFNSGLLCVACGSYRRGKATCGDVDVLITHPDGRSHRGIFSRLLDSLRQEGFLTDDLVSQEENGQQQKYLGVCRLPGPGRRHRRLDIIVVPYSEFACALLYFTGSAHFNRSMRALAKTKGMSLSEHALSTAVVRNTHGCKVGPGRVLPTPTEKDVFRLLGLPYREPAERDW
As to B1, the binding entry is “binds”.
